Some of the results follow.

In this assay the target is T1, OsSMF1 (Oryza sativa, UniProt Q6ZLB0 1-436).
T1 sequence: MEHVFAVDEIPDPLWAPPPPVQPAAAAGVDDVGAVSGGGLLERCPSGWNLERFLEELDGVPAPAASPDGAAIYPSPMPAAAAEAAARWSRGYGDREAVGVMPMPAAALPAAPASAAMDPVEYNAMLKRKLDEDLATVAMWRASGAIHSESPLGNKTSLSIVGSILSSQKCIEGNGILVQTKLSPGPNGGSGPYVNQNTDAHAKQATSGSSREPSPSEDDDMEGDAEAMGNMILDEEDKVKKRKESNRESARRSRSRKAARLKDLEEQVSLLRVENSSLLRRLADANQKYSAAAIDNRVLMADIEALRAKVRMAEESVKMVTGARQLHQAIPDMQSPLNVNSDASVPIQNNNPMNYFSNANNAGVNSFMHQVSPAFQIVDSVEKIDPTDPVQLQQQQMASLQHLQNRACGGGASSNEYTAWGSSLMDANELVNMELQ
The assay is described as follows: protein-binding microarray (RPBM); PBS, 2% BSA, 51.3 ng/ul salmon testes DNA, 50 uM zinc acetate, 200 nM TF, 25 C, 1 h; high values mean tight binding. The note with it: protein: recombinant; tags: N-terminal polyhistidine and DsRed monomer fusion (pET32a); chain copies: 2; label: CyDye5-dUTP incorporated in the synthesized complementary strand; 3' TTTTT single-stranded linker to array surface; dsDNA, one strand shown. In outline:
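An Axon 4000B scanner gave the binding signal as per-feature fluorescence intensity in arbitrary units. This followed washing of a custom Agilent array that had been incubated for 1 h at 25 °C with 200 nM protein in PBS, 2% BSA, salmon testes DNA and 50 µM zinc acetate. The proteins were transcription factors fused at the N-terminus to polyhistidine and DsRed, expressed in E. coli BL21-CodonPlus and purified on Ni–NTA.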
On to “GGTCAATTTATAACATACCGCAGGTCCGCAAGTGACGAGGCGGAGTCACCTAGTGCAG”, for which the binding signal is 3280 fluorescence intensity (a.u.). To “CCACCTCCAACAACAACGGCCTTGTCATTTCCTCTACCGCCGGAGTCACCTAGTGCAG” belongs 3850 fluorescence intensity (a.u.); to “GGGGACATACTTCTCGCAAATGTCTGCGCTACAGTGCTACCGGAGTCACCTAGTGCAG”, 21200 fluorescence intensity (a.u.). For “TAAGCTACCTACTAATGCCACGTGGCGGCCGTCAAGCGGGCGGAGTCACCTAGTGCAG”, the binding signal was 19700 fluorescence intensity (a.u.).

Regarding “TAATTTTCGAGTTTCCACGATATGTGGTTTGCCCGATATACGGAGTCACCTAGTGCAG”, the binding signal is 3370 fluorescence intensity (a.u.). “TGCAGCGATGACGTATGCTGCAGTGCATCACGCAGTCGTACGGAGTCACCTAGTGCAG”: the binding signal is 8070 fluorescence intensity (a.u.). Next, “AGTGGGCACACCTTCCTCTCCTAGCTACCAAATTCTCTTCCGGAGTCACCTAGTGCAG”: 17500 fluorescence intensity (a.u.); “CAAAACAGAAATCTGCCGCATTTCACGTGTAAAAGAAGAACGGAGTCACCTAGTGCAG”: 31900 fluorescence intensity (a.u.). “AATTCATGAATTTTCTCTCCTTCTCATGCAATATCTGACTCGGAGTCACCTAGTGCAG”: the binding signal was 3500 fluorescence intensity (a.u.). Next, “CTCTCCTCTTTGCATGCATTCCTCCTGCCAAGAGTGCTGACGGAGTCACCTAGTGCAG”: 3400 fluorescence intensity (a.u.); “CCACCACTGTCCTTCTCGCTTGCCGTGCCTCATCACCGCCCGGAGTCACCTAGTGCAG”: 3860 fluorescence intensity (a.u.).

Take “TAAAGAAAGAAAAGACATTAATAAAGCAGCAAAGAAAAGACGGAGTCACCTAGTGCAG”: the binding signal was 46000 fluorescence intensity (a.u.). To “TAGGGTTGTCATCGCTTGCCACCTACCTCTATAATCCGTGCGGAGTCACCTAGTGCAG” belongs 4030 fluorescence intensity (a.u.). Next, “GAATAATTTATTAAATAATTTATAAATCCTGAAACGAAAACGGAGTCACCTAGTGCAG”: 3520 fluorescence intensity (a.u.); “TGTCATGCTTAAAGAACATTTGATGATAAATCAAATCATACGGAGTCACCTAGTGCAG”: 36400 fluorescence intensity (a.u.). As to “TGAAGCCGTGACACGGTTCTCTAATCTGCTGAAGTCATGTCGGAGTCACCTAGTGCAG”, the binding signal was 3880 fluorescence intensity (a.u.).

Regarding “GCCACCGAACGAACGCGCCGACCGACCGCGCGAAGATCTGCGGAGTCACCTAGTGCAG”, the binding signal was 3290 fluorescence intensity (a.u.). Next, “CAAACCAAACCCGCGCAAGCCAATCCACCCCGGCCTAGTCCGGAGTCACCTAGTGCAG”: 3150 fluorescence intensity (a.u.). Next, “TACACTTGCCCGGTCATAACCCTAACCATTTCTTCCCTTCCGGAGTCACCTAGTGCAG”: 4630 fluorescence intensity (a.u.); “TTGAAAATAACATTCCAAACCGATGACGCTCCGCTCCCTCCGGAGTCACCTAGTGCAG”: 3660 fluorescence intensity (a.u.).

As for “TGCTTCTCTCCGTGATGTGTGTGGGCCCACTAGCCACCGCCGGAGTCACCTAGTGCAG”, the binding signal was 3150 fluorescence intensity (a.u.). Consider “TCTCTCGCCGATTCCGCCACCGCCGCCGCGCCGCGCCTCGCGGAGTCACCTAGTGCAG”, for which the binding signal was 3260 fluorescence intensity (a.u.). For the sequence “CGTCCGCCTTGAACACGTGCGCCTCGGGCGTCTCCTTCCACGGAGTCACCTAGTGCAG”, the binding signal is 4500 fluorescence intensity (a.u.). As to “GATACTGCTGTACTTGGAGCCAAGCGAGAGAGAAGACTGACGGAGTCACCTAGTGCAG”, the binding signal is 3880 fluorescence intensity (a.u.). Turning to “ACCGGTTTGACCACGCCACTTCCTGCACCAGTCCACATACCGGAGTCACCTAGTGCAG”, the binding signal was 3940 fluorescence intensity (a.u.). To “TGGGTTTTGAATTTTCGAGGAAATTCTTACCGCCACAATACGGAGTCACCTAGTGCAG” belongs 20600 fluorescence intensity (a.u.). To “GTACCAGATGTGACACATTCTATTACTATGAATATGGATACGGAGTCACCTAGTGCAG” belongs 3680 fluorescence intensity (a.u.); to “CTCCTTTTATAGGCTTTGATAACTTGTGTTTAGCCTTGAGCGGAGTCACCTAGTGCAG”, 34200 fluorescence intensity (a.u.). Consider “GAAGACAAACAACCTATCGCTAGCATGCGAGATTTCTCTACGGAGTCACCTAGTGCAG”, for which the binding signal is 35100 fluorescence intensity (a.u.). As for “CTATTTGTCATCCCTATCTCAATGACATGTGAGTCTAAATCGGAGTCACCTAGTGCAG”, the binding signal is 3180 fluorescence intensity (a.u.). Next, “CAATTCGGCTTTGTGTATAACATCATTGGTGATGTGGAATCGGAGTCACCTAGTGCAG”: 7500 fluorescence intensity (a.u.); “CCGTCGAGCTCCCGGGATCTGGTCGTGGCACGCTCAGGGGCGGAGTCACCTAGTGCAG”: 5300 fluorescence intensity (a.u.); “CGGTGTGAAACCAACCACGCCGGTGGATCCACGGCGGCGCCGGAGTCACCTAGTGCAG”: 3290 fluorescence intensity (a.u.). For “GAATTGCCACGTAAGCACCACGTCAGTGCCATGTCAGATGCGGAGTCACCTAGTGCAG”, the binding signal was 52400 fluorescence intensity (a.u.).

With “CGACGACGCCACCAAGGCACCAACTCCACGTCTCCGCCCCCGGAGTCACCTAGTGCAG”, the binding signal was 4730 fluorescence intensity (a.u.).

For the sequence “CTGTGACGACGTTGCTTGCCGCCTTGATGAGTCACTGCATCGGAGTCACCTAGTGCAG”, the binding signal was 11000 fluorescence intensity (a.u.). To “GAGCAGGAGGAGCTGAGCGACTCCGAGTCGGGCGCCGAGTCGGAGTCACCTAGTGCAG” belongs 40100 fluorescence intensity (a.u.); to “TCCATGTCCACCTCCTCCCCATCACCCCACCATTGCCTCGCGGAGTCACCTAGTGCAG”, 4210 fluorescence intensity (a.u.).

“GTAACAGGTAAACTGAAGATTACAGTGACGCATATTCACACGGAGTCACCTAGTGCAG”: the binding signal was 3620 fluorescence intensity (a.u.). “TTGTGATTAGCCACATCAACCAAAAGCCTGTGTGTTTTGTCGGAGTCACCTAGTGCAG”: the binding signal is 4520 fluorescence intensity (a.u.). In the case of “GTTTCCATTTTCCTTGCATCCATCTATAAAGATAGCTAGGCGGAGTCACCTAGTGCAG”, the binding signal was 34700 fluorescence intensity (a.u.). As to “TTTCTTAATCACGTCATTTATTCAATTTGACTTAGCCCGGCGGAGTCACCTAGTGCAG”, the binding signal was 5070 fluorescence intensity (a.u.).
